Measured values: US20080233109A1
These are yes or no findings as the source states them, for the method shown. Binding seen in cells or lysates may run through a third protein. Some entries that bind do so weakly or less than the wild type.

Amino acid sequences for entries named in this document (tags omitted). A change or cut given only in a name is not applied to a line headed by its entry.
UniProt Q9WUU9: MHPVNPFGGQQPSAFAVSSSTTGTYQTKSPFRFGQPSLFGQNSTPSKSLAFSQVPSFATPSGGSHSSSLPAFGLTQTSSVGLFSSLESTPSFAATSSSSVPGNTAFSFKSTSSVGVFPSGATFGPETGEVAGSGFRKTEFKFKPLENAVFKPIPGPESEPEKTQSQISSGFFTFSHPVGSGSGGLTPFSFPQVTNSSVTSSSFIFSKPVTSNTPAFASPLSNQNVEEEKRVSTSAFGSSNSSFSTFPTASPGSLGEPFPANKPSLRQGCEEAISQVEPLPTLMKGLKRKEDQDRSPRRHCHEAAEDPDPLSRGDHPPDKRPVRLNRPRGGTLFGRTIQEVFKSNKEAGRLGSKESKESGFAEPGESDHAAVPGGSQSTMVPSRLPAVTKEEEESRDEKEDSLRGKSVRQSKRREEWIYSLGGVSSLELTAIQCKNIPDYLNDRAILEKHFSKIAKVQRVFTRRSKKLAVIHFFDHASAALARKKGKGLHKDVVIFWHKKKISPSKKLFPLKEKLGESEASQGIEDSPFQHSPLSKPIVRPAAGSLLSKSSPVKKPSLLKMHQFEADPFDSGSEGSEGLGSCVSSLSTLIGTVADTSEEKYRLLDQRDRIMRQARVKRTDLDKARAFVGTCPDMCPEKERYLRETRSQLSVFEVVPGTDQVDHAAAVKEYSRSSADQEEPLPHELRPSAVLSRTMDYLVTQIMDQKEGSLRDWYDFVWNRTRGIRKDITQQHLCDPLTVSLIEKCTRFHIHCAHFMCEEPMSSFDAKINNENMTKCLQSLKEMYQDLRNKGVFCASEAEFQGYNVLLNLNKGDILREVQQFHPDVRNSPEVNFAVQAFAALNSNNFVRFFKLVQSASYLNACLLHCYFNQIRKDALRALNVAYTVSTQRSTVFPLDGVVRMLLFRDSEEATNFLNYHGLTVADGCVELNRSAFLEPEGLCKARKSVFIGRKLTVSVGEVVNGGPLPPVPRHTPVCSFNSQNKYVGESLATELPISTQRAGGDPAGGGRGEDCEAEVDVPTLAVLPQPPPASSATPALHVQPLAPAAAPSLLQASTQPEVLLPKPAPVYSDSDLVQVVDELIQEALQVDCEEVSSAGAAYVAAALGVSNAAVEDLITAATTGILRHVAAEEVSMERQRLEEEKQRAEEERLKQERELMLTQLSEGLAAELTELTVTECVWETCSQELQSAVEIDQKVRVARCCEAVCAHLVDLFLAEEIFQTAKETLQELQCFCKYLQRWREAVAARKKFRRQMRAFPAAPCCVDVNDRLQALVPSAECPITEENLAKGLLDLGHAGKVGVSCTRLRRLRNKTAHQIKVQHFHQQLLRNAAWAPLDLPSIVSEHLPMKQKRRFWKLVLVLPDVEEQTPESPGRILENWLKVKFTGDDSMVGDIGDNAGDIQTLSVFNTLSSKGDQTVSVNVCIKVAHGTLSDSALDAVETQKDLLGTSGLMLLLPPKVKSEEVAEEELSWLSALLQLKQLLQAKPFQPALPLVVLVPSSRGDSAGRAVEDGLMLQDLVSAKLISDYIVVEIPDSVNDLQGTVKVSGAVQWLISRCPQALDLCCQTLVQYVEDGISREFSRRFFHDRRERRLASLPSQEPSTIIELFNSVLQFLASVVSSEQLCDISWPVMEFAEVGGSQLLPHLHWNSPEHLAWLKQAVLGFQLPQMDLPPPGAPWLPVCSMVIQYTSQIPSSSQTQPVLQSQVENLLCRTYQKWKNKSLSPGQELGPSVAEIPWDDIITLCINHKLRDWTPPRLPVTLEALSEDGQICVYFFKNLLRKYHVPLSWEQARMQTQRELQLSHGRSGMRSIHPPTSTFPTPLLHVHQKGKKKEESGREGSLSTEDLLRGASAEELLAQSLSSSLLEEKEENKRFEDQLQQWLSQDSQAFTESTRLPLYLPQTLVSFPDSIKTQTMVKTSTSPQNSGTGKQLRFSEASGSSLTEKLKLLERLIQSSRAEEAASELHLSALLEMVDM

How the values were obtained:
[1] = biological target: MCM3-HA (HA epitope-tagged MCM3) (UniProt P25206); assay: co-immunoprecipitation with anti-HA, anti-FLAG blot, COS7 cells
[2] = biological target: T1, MCM3 from BAL17 cell lysate (mouse) (UniProt P25206); assay: GST pull-down from BAL17 lysate, anti-MCM3 blot
T1 sequence (looked up): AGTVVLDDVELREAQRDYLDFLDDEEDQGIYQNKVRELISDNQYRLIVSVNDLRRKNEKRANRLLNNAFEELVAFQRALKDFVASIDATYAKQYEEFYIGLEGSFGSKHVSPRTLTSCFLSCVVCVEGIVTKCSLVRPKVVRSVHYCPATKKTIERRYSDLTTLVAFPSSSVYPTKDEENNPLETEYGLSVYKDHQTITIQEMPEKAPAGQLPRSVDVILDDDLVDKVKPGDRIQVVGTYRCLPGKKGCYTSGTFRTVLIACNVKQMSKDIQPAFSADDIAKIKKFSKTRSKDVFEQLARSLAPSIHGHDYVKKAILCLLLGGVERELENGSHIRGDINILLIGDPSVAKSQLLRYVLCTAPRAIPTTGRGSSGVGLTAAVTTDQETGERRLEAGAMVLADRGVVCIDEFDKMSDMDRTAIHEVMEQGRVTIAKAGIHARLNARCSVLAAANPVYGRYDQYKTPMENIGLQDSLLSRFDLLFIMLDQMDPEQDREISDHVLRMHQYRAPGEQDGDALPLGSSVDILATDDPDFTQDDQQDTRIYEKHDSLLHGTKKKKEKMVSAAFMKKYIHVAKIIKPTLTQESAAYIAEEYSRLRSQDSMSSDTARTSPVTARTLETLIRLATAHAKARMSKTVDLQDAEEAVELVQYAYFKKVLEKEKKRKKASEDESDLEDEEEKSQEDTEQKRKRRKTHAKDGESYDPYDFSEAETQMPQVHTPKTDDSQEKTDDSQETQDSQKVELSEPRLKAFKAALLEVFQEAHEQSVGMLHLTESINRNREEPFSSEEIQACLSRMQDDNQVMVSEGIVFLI

[3] = biological target: T2, [^35S]-labeled MCM3 synthesized in vitro (UniProt P25206); assay: GST pull-down of in vitro translated MCM3, autoradiography
T2 sequence (radio-labeled with ^35S-methionine, looked up): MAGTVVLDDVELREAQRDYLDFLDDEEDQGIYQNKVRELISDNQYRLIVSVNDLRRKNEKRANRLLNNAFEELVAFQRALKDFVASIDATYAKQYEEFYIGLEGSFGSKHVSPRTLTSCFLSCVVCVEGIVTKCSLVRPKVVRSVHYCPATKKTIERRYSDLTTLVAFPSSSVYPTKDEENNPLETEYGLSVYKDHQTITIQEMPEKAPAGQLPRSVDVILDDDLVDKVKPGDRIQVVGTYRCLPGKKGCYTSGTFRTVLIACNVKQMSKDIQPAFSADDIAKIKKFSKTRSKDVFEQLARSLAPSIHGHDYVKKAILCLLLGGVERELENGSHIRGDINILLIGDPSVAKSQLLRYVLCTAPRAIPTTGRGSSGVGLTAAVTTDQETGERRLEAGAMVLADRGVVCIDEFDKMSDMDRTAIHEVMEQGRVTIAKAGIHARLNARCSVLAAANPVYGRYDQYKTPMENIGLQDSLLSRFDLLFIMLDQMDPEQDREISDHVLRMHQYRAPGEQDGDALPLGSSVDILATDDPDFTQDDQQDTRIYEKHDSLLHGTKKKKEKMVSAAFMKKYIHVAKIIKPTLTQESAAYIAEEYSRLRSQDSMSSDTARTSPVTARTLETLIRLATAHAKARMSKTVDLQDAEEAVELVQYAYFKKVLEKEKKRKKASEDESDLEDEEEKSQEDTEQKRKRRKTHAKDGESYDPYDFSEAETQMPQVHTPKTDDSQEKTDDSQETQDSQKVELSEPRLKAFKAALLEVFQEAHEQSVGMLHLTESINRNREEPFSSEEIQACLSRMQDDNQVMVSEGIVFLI

Substance	binding [1]	binding [2]	binding [3]
FLAG-Gmap80 (from UniProt Q9WUU9 1251-1971)	binds	–	–
FLAG-Ganp (from UniProt Q9WUU9 1-1971)	binds	–	–
GST-GANP2 (from UniProt Q9WUU9 382-731)	–	binds	binds
GST-GANP5-7′ (from UniProt Q9WUU9 1251-1971)	–	binds	binds
